# Experimental data taken from PubChem BioAssay AID504327 (National Center for Advancing Translational Sciences (NCATS), 2011).
# Protein sequences, listed by entry. Tags and fused reporters are not part of them.
# UniProt Q92830, whole entry, looked up: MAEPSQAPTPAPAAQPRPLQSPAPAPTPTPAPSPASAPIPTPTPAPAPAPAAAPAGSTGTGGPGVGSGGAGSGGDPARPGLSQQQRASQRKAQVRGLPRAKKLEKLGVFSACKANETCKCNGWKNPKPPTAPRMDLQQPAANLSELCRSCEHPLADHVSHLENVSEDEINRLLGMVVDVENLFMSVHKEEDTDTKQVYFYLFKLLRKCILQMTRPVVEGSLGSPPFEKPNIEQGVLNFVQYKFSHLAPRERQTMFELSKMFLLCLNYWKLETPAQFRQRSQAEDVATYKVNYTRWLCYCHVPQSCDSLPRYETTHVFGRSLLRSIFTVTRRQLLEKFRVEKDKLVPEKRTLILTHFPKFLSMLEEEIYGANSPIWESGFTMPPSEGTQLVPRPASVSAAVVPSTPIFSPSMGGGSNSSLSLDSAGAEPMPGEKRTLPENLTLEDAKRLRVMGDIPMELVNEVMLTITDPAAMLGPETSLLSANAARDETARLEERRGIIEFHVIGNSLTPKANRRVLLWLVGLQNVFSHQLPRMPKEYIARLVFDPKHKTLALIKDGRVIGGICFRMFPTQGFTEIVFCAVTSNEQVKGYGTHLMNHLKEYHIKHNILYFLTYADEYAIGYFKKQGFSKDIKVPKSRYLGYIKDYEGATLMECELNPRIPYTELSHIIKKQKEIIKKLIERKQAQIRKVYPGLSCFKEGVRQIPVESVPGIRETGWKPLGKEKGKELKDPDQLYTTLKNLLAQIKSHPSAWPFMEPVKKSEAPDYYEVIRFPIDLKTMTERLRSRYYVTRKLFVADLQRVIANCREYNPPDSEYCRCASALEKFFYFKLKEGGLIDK
# Among all 390,000 compounds or so, about 820 (0.21%) were called active. Inconclusive results, whose numbers are uncertain, are shown with a selection of clear calls. Calls follow the shape of the dose curve; as a rule, active = well fitted inhibition curve with a large enough effect; inconclusive = small, poorly fitted or top-dose-only effect, or another doubt; inactive = no such curve, though single readings can be large or run the other way. Potencies beside an inconclusive call are fits to weak or partial responses and may not hold up.
# Target: Histone acetyltransferase KAT2A (Homo sapiens) (UniProt Q92830)
# Assay: qHTS Assay for Inhibitors of GCN5L2
# Conditions: GCN5L2 HAT assay, ThioGlo1 CoA-SH fluorescence; activity change, negative = inhibition: at 58.9 µM (top of the series) unless noted
# In short: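 GCN5L2 (20nM final) in 50mM HEPES, 0.1mM EDTA pH 7.5, 0.01% Tween-20 was preincubated 15 min at room temperature with compound, then given ThioGlo1 (50uM), H3(1-25) peptide (75uM) and acetyl-CoA (70uM); CoA-thiol fluorescence (Ex340/Em540) was read at 0 and 20 min.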
# % is scaled to controls: 0 for no effect and ±100 for the full control effect; potency is read from the fitted curve at half-maximal effect.
Structure (SMILES),Potency,"activity change, negative = inhibition"
C[C@H](NC(=O)C(c1ccccc1)c1ccccc1)c1ccccc1,"inconclusive: 35.5 µM [inhibitor, single point]",–
CN1CCN(CCCNC(=O)c2ccc(/C=C3\Oc4ccccc4N(Cc4ccccc4F)C3=O)cc2)CC1,–,inactive: -5.17%
NS(=O)(=O)c1ccc(N2C(=O)C3CC=CCC3C2=O)cc1 (stereo unspecified),–,inactive: -1.22%
CNC(=O)c1cc(Nc2nnc(-c3ccc(O)cc3)c3ccccc23)ccc1OC,inactive,–
COc1ccc(C(=O)Cn2c(NCCO)nc3ccccc32)cc1,–,inactive: -0.633%
CCCCc1cc(=O)oc2cc(C)c(CN3CCCC3)c(O)c12,"inconclusive: 11.2 µM [inhibitor, partial curve, poor fit]",–
Cc1[nH]c(C)c(S(=O)(=O)N2CCN(c3ccccc3F)CC2)c1C(=O)N1CCCCC1,–,inactive: -7.02%
O=S(=O)(c1ccc(F)cc1)N1CCN(S(=O)(=O)c2cc(F)ccc2F)CC1,"inconclusive: 39.8 µM [inhibitor, single point]",–
COc1ccccc1-c1coc2c(CN3CCCC(C)C3)c(O)ccc2c1=O (stereo unspecified),"inconclusive: 28.2 µM [inhibitor, single point]",–
COc1cc(NC(=O)c2ccco2)c(C(=O)O)cc1OC,"inconclusive: 39.8 µM [inhibitor, single point]",–
COC(=O)Cn1c(=NC(=O)c2ccc(S(=O)(=O)N3CCc4ccccc4C3)cc2)sc2cc(OC)ccc21,"inconclusive: 22.4 µM [inhibitor, partial curve]",–
Cc1cc(C)c(Cn2c3ccccc3c3cnn(CC(=O)N4CCCCCC4)c(=O)c32)c(C)c1,–,inactive: -3.41%
COCC(=O)N(Cc1cc2ccc(C)c(C)c2n2nnnc12)C1CCCC1,–,inactive: -6.49%
COc1ccc(NC(=O)Cn2nnc(-c3ccccc3NS(=O)(=O)c3ccc(OC)cc3)n2)cc1,–,inactive: -7.86%
Cc1ccc(SCC(=O)OCC(=O)N(CCC#N)c2ccccc2)cc1C,"inconclusive: 7.08 µM [inhibitor, single point]",–
CC1CCc2c(sc3[nH]c(=S)n(C)c(=O)c23)C1 (stereo unspecified),–,inactive: -25.2%
Cn1cc(CNC(=O)CC2C(=O)NCCN2CC(C)(C)C)cn1 (stereo unspecified),"inconclusive: 0.794 µM [inhibitor, single point]",–
COCCCn1c(=O)/c(=C\c2ccccc2OC(C)C)s/c1=C(/C#N)C(=O)Nc1ccc(C(=O)O)cc1,"inconclusive: 39.8 µM [inhibitor, single point]",–
Cc1cc(Cl)c(OCCOCCN2CCCC(C)C2)c(Br)c1 (stereo unspecified),–,inactive: -3.87%
FC(F)(F)c1nc(=S)c2ccccc2[nH]1,"inconclusive: 10 µM [inhibitor, partial curve]",–
O=C(NCc1cccc(F)c1)c1ccc(-n2cnc3cccnc32)cc1,"inconclusive: 3.16 µM [inhibitor, single point]",–
O=C(CCC(=O)N1CCOc2ccccc21)NC1CCCCCC1,"inconclusive: 39.8 µM [inhibitor, single point]",–
O=C1OCCN1C(=O)[C@H]1[C@H](c2ccc(F)cc2)C(c2ccc(F)cc2)=NN1c1ccc(Br)cc1,"inconclusive: 39.8 µM [inhibitor, single point]",–
CCOc1ccc(N2C(=O)C3Sc4[nH]c(=O)sc4C(/C=C/c4ccccc4)C3C2=O)cc1 (stereo unspecified),–,inactive: -23.8%

Structure (SMILES),Potency,"activity change, negative = inhibition"
COC(=O)Cn1c(=NC(=O)c2ccc(OC)cc2)sc2cc(OC)ccc21,"inconclusive: 35.5 µM [inhibitor, single point]",–
CN(C)C(CNc1ncnc2sccc12)c1ccccc1 (stereo unspecified),–,inactive: -2.99%
Cc1ccc(NC(=O)c2cc3c(=O)oc4ccc(C)cc4c3s2)nc1,"inconclusive: 35.5 µM [inhibitor, single point]",–
COc1cccc(CNC(=O)C2Cc3cc(S(=O)(=O)N4CCCC4)ccc3N2C(C)=O)c1OC (stereo unspecified),"inconclusive: 39.8 µM [inhibitor, single point]",–
Cc1ccc(NC(=O)C(C)NC(=O)OCc2ccccc2)cc1C (stereo unspecified),"inconclusive: 28.2 µM [inhibitor, single point]",–
Cc1cccn2cc(CCNS(=O)(=O)c3cccs3)nc12,–,inactive: -15.1%
Cc1c(C(=O)N(Cc2ccccc2Cl)C2CCS(=O)(=O)C2)oc2ccccc12 (stereo unspecified),"inconclusive: 1 µM [inhibitor, full curve]",–
C=C1CCN(C(C)C(=O)OC)S(=O)(=O)c2ccccc21 (stereo unspecified),"inconclusive: 31.6 µM [inhibitor, single point]",–
O=C(Nc1ccc2c(c1)OCO2)c1cc(-c2ccccc2Cl)on1,–,inactive: -3.8%
CC1=NN(c2ccc(Cl)c(C(=O)O)c2)C(=O)/C1=C/c1ccc(-c2ccccc2[N+](=O)[O-])o1,"inconclusive: 28.2 µM [inhibitor, single point]",–
O=C(O)c1ccc(N/N=C/C=C/c2ccc([N+](=O)[O-])o2)cc1,–,inactive: -21.5%
Cc1cccc(NC(=O)c2c(NC(=O)C(F)(F)F)sc3c2CCCCC3)c1,"inconclusive: 39.8 µM [inhibitor, single point]",–
C=C1CCN([C@@H](C)C(=O)NCc2ccc(Cl)cc2)S(=O)(=O)c2ccccc21,"inconclusive: 1 µM [inhibitor, full curve, poor fit]",–
CC(C)c1ccc(NS(=O)(=O)c2ccc(N3C(=O)CCC3=O)cc2)cc1,"inconclusive: 7.08 µM [inhibitor, single point]",–
COc1ccc2[nH]c3c(C)c4cc[n+](C)cc4c(C)c3c2c1,"inconclusive: 35.5 µM [inhibitor, single point]",–
O=C(O)CCSc1ccc([N+](=O)[O-])cc1[N+](=O)[O-],–,inactive: 1.14%
FC(F)(F)c1ccc2c(c1)NCC1CCCN21 (stereo unspecified),"inconclusive: 0.631 µM [inhibitor, single point]",–
CSc1ccc(C2NC(=O)c3c(sc4c3CCN(C)C4)N2)cc1 (stereo unspecified),–,inactive: -17.6%
CCC(Sc1nc2ccsc2c(=O)n1Cc1ccc(C(=O)O)cc1)C(=O)Nc1ccc(C)c(Cl)c1 (stereo unspecified),"inconclusive: 39.8 µM [inhibitor, partial curve, poor fit]",–
O=C(O)c1ccc2c(c1)C(=O)N(c1ccc(OCc3ccccc3)cc1)C2=O,–,inactive: -15.7%
CCCCCCCCCCCCC(NC(C)=O)(C(=O)OCC)C(=O)OCC,"inconclusive: 0.891 µM [inhibitor, full curve, poor fit]",–
O=C(Cc1cccc2ccccc12)N/N=C/c1ccc(O)c([N+](=O)[O-])c1,"inconclusive: 39.8 µM [inhibitor, single point]",–
Cc1cc(S(=O)(=O)N2CCCCC2)ccc1OCC(=O)N1CCOCC1,"inconclusive: 5.01 µM [inhibitor, single point]",–
Cc1cc(C)cc(NS(=O)(=O)c2ccc(Oc3ncc(C(F)(F)F)cc3Cl)cc2)c1,"inconclusive: 10 µM [inhibitor, partial curve]",–

# Rewritten as tab-separated lines: part of the list above
Structure (SMILES)	Potency	activity change, negative = inhibition
Cc1ccc(NC(=O)C(C)NC(=O)OCc2ccccc2)cc1C (stereo unspecified)	inconclusive: 28.2 µM [inhibitor, single point]	–
O=C(O)CCSc1ccc([N+](=O)[O-])cc1[N+](=O)[O-]	–	inactive: 1.14%
O=C(O)c1ccc2c(c1)C(=O)N(c1ccc(OCc3ccccc3)cc1)C2=O	–	inactive: -15.7%
CCCCCCCCCCCCC(NC(C)=O)(C(=O)OCC)C(=O)OCC	inconclusive: 0.891 µM [inhibitor, full curve, poor fit]	–

# Remaining list, next part.

Structure (SMILES),Potency,"activity change, negative = inhibition"
CCc1nnc(NS(=O)(=O)c2ccccc2)s1,"inconclusive: 11.2 µM [inhibitor, partial curve]",–
Cc1ccc(C)n1Cc1ccc(C(=O)O)cc1,active: 15.8 µM,–
COc1ccc(/C=C(/C(=O)c2ccc(Cl)cc2Cl)n2cncn2)cc1,"inconclusive: 4.47 µM [inhibitor, single point]",–
Oc1ccc(-c2cnns2)c(O)c1,–,inactive: -8.37%
CCCCc1cc(=O)oc2cc(O)ccc12,"inconclusive: 25.1 µM [inhibitor, single point]",–
O=C(Oc1ccc(Br)cc1C(=S)N1CCOCC1)c1ccc(F)cc1,"inconclusive: 1.12 µM [inhibitor, full curve]",–
COc1ccc(-n2c(=O)c(-c3cc(F)cc(F)c3)nc3cnc(N(C)C)nc32)cc1,–,inactive: -3.12%
CCNC1=C(Cl)C(=O)c2ccccc2C1=O,"inconclusive: 35.5 µM [inhibitor, single point]",–
Cc1cc(C)c2nc(N3C(=O)C(O)=C(C(=O)c4ccco4)C3c3ccc(O)cc3)sc2c1 (stereo unspecified),"inconclusive: 39.8 µM [inhibitor, single point]",–
COc1ccc(CCCn2ncc3c2nc(N)n2nc(-c4ccco4)nc32)cc1,"inconclusive: 39.8 µM [inhibitor, single point]",–
O=C(Nc1ccc(S(=O)(=O)N2CCCCC2c2cccnc2)cc1)c1ccc(F)cc1 (stereo unspecified),–,inactive: 1.95%
COc1cccc2sc(NNC(=O)COc3ccccc3)nc12,–,inactive: -10.6%
COc1cc(C(=O)OCCCN2CCCN(CCCOC(=O)c3cc(OC)c(OC)c(OC)c3)CC2)cc(OC)c1OC,inactive,–
c1ccc(-c2nc3ccccc3[nH]2)cc1,"inconclusive: 0.708 µM [inhibitor, full curve, poor fit]",–
CCCn1c(=O)c(C(=O)NCCc2ccccc2)c(O)c2ccccc21,–,inactive: -14.2%
COc1ccc(C(=O)Nc2ccc(C3CC3(Cl)Cl)cc2)cc1 (stereo unspecified),"inconclusive: 5.01 µM [inhibitor, single point]",–
Cc1cccc(CCNC(=O)CNS(=O)(=O)c2ccc3nc(C)sc3c2)c1,"inconclusive: 39.8 µM [inhibitor, single point]",–
Cn1cccc1/C=C1\CCC/C(=C\c2cccn2C)C1=O,–,inactive: -6.47%
CCOC(=O)CNC(=O)N1CCC(CCOc2ccccc2)(C(=O)OCC)CC1,"inconclusive: 0.126 µM [inhibitor, full curve, poor fit]",–
CCN1C(=O)/C(=C\C=C2/C=CC=CN2CC)SC1=S,–,inactive: -11.7%
CCOc1ccc(S(=O)(=O)N(C(=O)c2ccco2)c2cc3sc(=O)oc3c3ccccc23)cc1,"inconclusive: 39.8 µM [inhibitor, single point]",–
CNS(=O)(=O)c1ccc(NC(=O)C(CCSC)NC(N)=O)cc1 (stereo unspecified),"inconclusive: 0.141 µM [inhibitor, full curve, poor fit]",–
COc1ccc(C(=O)CSc2nnc(CNC(=O)c3ccc(OC)cc3)n2C)cc1,–,inactive: -0.0303%
